Assay results as given in publication PMC3012730, “The Actinobacillus pleuropneumoniae HMW1C-Like Glycosyltransferase Mediates N-Linked Glycosylation of the Haemophilus influenzae HMW1 Adhesin” (PLoS ONE, 2010).

Biological target: T1, P55, C-terminal domain of ApHMW1C (tryptic fragment) (Actinobacillus pleuropneumoniae) (UniProt A3N2T3)
T1 sequence: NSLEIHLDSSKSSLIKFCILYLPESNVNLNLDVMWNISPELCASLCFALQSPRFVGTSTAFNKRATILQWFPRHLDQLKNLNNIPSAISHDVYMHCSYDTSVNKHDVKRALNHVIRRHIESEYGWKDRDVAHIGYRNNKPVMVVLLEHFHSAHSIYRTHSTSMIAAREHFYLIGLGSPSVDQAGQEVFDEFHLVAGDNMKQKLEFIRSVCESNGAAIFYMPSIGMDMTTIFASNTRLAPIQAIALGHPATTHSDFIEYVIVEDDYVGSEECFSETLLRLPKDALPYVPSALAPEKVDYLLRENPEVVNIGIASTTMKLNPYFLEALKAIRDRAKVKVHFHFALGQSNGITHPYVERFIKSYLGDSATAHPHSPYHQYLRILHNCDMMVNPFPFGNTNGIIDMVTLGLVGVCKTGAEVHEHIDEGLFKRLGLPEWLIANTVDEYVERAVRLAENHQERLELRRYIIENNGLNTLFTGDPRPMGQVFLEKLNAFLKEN
Experiment: co-purification by chromatography after limited proteolysis; scale-up preparative limited trypsin proteolysis of purified ApHMW1C followed by chromatography; both purified

P15, N-terminal domain of ApHMW1C (tryptic fragment) (Actinobacillus pleuropneumoniae) (domain or fragment)
binding: binds

No constants are given. Whether binding was seen depends on the method and setting. Binding seen in cells or lysates may run through a third protein. Binding can be weak; no strength is given.
